Results on 32 targets are retold here after the supplement of paper PMC12067093, “Discovery and optimisation of a covalent ligand for TRIM25 and its application to targeted protein ubiquitination” (Chemical Science, 2025).

Protein sequences, listed by entry. Tags and fused reporters are not part of them. Lines headed by an entry give the natural chain unless they say otherwise; changes in a name come on top.
UniProt Q4V328: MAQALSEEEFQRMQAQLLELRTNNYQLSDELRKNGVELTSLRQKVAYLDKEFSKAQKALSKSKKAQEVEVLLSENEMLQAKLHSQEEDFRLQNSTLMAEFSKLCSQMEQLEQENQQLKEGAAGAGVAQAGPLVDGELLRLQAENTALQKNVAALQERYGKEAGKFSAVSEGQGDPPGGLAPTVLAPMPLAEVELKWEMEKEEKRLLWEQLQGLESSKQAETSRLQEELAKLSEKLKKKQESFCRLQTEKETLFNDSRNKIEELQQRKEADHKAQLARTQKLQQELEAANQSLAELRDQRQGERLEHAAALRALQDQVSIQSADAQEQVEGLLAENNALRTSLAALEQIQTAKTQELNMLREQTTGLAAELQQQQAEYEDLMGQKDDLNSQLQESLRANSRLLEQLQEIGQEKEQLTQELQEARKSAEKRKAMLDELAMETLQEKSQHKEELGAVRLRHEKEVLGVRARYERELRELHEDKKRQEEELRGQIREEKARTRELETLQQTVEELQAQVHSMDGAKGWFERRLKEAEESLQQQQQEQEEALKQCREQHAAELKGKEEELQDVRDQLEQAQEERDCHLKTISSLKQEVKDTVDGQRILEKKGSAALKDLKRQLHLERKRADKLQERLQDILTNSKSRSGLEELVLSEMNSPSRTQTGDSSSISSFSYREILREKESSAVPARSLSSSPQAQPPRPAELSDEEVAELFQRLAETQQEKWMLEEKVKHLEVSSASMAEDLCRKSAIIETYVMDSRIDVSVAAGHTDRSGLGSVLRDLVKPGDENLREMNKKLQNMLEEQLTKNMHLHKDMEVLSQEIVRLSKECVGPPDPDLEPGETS
UniProt Q9UKN8: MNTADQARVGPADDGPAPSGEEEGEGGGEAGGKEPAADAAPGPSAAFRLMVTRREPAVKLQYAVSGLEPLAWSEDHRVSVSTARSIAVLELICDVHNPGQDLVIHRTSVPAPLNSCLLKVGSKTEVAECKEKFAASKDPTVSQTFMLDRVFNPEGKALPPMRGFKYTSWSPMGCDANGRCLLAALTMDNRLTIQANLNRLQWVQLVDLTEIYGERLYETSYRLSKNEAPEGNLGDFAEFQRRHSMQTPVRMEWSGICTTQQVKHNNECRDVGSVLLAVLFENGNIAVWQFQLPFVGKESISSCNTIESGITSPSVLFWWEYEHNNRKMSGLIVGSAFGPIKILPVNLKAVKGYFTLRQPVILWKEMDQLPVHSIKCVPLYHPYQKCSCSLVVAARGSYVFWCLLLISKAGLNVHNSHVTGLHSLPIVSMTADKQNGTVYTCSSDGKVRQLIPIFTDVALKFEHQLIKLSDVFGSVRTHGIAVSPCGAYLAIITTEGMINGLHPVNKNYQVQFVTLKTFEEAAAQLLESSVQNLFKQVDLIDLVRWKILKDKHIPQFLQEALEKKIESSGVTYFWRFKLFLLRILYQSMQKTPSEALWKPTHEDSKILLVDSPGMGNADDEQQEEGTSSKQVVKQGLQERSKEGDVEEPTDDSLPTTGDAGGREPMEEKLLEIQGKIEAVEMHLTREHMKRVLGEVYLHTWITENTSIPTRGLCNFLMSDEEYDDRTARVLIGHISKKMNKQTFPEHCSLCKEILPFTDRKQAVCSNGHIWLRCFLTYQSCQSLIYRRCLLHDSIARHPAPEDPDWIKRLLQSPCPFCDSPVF
UniProt P13807: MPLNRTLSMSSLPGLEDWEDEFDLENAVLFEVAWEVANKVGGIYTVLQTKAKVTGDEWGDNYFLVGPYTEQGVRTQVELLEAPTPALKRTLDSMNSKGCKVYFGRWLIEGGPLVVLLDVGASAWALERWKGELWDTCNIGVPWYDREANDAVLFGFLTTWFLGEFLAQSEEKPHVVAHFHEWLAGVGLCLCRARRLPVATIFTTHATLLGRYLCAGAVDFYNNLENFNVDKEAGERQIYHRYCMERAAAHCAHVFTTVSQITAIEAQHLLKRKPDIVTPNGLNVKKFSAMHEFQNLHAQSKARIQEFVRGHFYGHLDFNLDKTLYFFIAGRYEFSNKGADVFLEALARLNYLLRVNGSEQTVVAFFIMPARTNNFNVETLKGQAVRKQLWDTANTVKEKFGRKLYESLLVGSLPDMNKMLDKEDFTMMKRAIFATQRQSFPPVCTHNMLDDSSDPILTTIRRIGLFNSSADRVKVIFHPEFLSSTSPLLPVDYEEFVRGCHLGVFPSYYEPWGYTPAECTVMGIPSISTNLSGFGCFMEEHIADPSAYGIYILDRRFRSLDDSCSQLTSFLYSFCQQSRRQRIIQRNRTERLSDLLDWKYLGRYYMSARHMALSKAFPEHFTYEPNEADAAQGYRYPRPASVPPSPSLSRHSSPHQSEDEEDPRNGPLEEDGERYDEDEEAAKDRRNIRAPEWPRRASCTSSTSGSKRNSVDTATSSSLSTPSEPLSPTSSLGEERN
UniProt Q9UBQ7: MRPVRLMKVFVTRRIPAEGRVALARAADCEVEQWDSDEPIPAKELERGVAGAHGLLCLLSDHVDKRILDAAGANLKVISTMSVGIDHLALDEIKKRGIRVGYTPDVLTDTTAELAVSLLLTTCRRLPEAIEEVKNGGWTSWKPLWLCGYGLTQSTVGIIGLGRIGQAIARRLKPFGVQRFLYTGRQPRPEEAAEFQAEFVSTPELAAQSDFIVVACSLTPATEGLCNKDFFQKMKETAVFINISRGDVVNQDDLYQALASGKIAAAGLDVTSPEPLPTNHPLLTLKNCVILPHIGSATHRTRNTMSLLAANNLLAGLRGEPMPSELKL
UniProt Q12789: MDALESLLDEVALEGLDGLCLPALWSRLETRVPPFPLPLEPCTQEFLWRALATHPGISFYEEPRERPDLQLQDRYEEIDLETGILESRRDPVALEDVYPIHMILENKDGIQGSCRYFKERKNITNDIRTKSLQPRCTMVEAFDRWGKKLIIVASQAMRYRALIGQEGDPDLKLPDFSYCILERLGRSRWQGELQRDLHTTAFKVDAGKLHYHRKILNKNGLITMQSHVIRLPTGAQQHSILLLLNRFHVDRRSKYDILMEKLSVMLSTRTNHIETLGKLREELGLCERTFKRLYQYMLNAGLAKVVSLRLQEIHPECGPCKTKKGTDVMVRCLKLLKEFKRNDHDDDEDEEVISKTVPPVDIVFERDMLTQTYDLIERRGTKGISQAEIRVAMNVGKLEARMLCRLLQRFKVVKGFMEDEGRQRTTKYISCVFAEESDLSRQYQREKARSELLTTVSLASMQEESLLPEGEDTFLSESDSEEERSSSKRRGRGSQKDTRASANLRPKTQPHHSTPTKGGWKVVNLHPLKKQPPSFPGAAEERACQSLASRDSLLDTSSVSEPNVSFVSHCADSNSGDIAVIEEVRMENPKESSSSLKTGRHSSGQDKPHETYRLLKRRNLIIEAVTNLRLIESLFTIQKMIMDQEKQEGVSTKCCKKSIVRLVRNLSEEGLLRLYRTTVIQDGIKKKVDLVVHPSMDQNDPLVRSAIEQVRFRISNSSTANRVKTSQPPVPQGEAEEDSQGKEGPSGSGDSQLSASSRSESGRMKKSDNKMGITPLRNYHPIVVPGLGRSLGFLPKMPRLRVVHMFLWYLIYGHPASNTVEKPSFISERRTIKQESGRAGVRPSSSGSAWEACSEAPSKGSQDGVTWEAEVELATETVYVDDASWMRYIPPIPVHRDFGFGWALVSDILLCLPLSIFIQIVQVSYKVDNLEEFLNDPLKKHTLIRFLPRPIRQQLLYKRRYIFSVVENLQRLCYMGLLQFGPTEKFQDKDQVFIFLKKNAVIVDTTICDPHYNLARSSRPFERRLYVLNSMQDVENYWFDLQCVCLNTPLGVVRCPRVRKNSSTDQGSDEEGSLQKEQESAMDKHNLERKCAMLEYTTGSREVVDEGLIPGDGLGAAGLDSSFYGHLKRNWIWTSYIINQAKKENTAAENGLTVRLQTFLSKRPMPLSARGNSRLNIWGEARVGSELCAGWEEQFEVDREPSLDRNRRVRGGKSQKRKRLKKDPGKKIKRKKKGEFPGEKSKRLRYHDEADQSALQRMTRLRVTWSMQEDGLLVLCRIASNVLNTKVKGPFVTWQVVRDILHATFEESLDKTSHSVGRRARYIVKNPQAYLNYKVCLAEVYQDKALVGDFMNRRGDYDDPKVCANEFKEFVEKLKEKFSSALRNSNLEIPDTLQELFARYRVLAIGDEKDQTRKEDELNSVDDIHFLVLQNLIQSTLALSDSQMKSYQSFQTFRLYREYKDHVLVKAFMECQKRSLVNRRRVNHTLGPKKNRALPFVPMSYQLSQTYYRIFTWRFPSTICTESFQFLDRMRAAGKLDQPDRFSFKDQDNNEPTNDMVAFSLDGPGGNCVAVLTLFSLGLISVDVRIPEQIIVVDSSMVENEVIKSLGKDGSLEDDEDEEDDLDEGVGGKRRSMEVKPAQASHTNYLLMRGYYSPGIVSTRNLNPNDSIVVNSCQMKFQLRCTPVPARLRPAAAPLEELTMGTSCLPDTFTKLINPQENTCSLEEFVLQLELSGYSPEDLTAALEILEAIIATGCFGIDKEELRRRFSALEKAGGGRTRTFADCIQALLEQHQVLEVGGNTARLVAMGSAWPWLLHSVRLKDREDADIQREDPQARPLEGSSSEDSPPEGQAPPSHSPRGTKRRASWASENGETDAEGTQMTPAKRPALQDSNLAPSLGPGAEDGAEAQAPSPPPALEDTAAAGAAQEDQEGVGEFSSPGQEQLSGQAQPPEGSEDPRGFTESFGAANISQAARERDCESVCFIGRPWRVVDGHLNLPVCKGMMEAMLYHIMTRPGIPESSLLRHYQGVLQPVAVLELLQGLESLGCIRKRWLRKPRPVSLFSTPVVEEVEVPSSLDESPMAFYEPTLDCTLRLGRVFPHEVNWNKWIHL
UniProt O14929: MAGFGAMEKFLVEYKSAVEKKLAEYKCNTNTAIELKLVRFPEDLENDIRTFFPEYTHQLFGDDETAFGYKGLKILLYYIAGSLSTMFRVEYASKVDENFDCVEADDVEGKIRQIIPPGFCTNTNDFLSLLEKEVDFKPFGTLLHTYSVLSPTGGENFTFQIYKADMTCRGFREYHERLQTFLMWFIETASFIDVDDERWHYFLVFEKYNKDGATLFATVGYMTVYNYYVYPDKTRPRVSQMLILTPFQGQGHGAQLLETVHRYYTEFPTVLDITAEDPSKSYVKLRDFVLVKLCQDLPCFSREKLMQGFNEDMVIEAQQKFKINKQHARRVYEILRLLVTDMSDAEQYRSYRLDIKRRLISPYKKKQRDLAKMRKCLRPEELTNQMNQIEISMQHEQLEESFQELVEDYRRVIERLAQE
UniProt P57764: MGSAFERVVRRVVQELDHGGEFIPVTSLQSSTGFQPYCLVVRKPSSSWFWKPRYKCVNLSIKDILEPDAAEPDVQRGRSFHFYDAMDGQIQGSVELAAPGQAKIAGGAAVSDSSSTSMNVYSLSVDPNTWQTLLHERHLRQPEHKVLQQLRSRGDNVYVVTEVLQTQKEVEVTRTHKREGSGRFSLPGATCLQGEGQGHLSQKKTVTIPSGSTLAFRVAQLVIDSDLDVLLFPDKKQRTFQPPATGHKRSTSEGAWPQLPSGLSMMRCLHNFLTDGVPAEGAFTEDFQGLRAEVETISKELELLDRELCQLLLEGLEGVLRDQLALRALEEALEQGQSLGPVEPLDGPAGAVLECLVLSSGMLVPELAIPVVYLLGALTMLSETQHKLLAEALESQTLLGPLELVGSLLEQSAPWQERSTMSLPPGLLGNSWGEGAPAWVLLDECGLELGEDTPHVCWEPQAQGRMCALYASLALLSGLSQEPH
UniProt P13984, whole entry: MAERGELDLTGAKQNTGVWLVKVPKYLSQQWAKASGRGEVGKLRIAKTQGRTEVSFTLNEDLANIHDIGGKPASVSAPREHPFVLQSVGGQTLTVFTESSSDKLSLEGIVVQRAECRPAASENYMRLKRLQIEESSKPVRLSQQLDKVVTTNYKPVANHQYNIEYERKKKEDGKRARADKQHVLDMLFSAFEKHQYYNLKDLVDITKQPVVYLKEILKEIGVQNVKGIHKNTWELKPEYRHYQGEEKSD
UniProt Q68CZ6: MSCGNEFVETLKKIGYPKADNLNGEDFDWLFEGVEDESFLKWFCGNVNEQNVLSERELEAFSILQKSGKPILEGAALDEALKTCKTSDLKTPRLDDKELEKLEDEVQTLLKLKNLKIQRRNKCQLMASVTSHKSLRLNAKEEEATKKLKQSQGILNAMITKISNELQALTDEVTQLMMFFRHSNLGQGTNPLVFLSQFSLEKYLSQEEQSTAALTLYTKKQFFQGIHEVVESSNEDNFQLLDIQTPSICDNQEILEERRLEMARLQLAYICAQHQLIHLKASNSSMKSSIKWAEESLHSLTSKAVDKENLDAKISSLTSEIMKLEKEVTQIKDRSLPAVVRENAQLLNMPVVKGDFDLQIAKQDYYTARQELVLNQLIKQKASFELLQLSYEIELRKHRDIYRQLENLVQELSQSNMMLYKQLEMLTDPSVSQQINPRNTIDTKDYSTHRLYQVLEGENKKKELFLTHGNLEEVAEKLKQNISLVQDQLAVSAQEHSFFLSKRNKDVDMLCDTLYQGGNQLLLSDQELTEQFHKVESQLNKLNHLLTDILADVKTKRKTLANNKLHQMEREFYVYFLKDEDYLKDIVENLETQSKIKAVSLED

This is one part of the list.

Compound in this assay: Cc1cc(ccc1-c1ccccc1)C(=O)N1CCCN(CC1)C(=O)CCl [compound 10]
Nature of the assay: probe-labelled cysteine peptide fold change vs DMSO (competition) (log2 fold change); higher = less target engagement (more negative = stronger competition). The conditions noted are these: THP-1, incubation time: 4 h.
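Further: competitive profiling in live THP-1 cells: cysteine peptides tagged with an iodoacetamide desthiobiotin (IA-DTB) probe, intensity after compound treatment relative to DMSO-treated cells.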

Take “HARS2_P49590_84_ILDLVISCFK (UniProt P49590)”: the “probe-labelled cysteine peptide fold change” value runs as follows: (10 µM) -0.204; (50 µM) -0.834.

In the case of “GRIPAP1_Q4V328_581_DQLEQAQEERDCHLK (UniProt Q4V328)”, the “probe-labelled cysteine peptide fold change” value is, setting by setting: (10 µM) 0.0626; (50 µM) -0.17.

On to “GTF3C4_Q9UKN8_93_SIAVLELICDVHNPGQDLVIHR (UniProt Q9UKN8)”, for which the “probe-labelled cysteine peptide fold change” value is 0.223 (10 µM) and 0.287 (50 µM).

Turning to “GTF3C3_Q9Y5Q9_810_GPCQESFYNLGR (UniProt Q9Y5Q9)”, the “probe-labelled cysteine peptide fold change” value was -0.005 (10 µM) and 0.191 (50 µM).

Take “GSK3B_P49841_76_LCDSGELVAIKK (UniProt P49841)”: the “probe-labelled cysteine peptide fold change” value runs as follows: (10 µM) -0.065; (50 µM) -0.272.

Regarding “GTF2H3_Q13889_255_AACFCHR (UniProt Q13889)”, the “probe-labelled cysteine peptide fold change” value turned out to be 0.0418 (10 µM) and 0.0292 (50 µM).

As for “GYS1_P13807_214_YLCAGAVDFYNNLENFNVDK (UniProt P13807)”, the “probe-labelled cysteine peptide fold change” value by setting is: (10 µM) 0.107; (50 µM) 0.121.

As for “GRIPAP1_Q4V328-2_502_EAEGKEEELQDVRDQLEQAQEERDCHLK (UniProt Q4V328)”, the “probe-labelled cysteine peptide fold change” value reads like this: (10 µM) -0.101; (50 µM) -0.725.

Consider “HAUS2_Q9NVX0_43_TVSCFVNFTR (UniProt Q9NVX0)”, for which the “probe-labelled cysteine peptide fold change” value was -0.00828 (10 µM) and 0.128 (50 µM).

Turning to “GSTP1_P09211_48_ASCLYGQLPK (UniProt P09211)”, the “probe-labelled cysteine peptide fold change” value is, setting by setting: (10 µM) 0.0629; (50 µM) 0.0278.

Consider “GRHPR_Q9UBQ7_29_AADCEVEQWDSDEPIPAK (UniProt Q9UBQ7)”, for which the “probe-labelled cysteine peptide fold change” value reads like this: (10 µM) -0.563; (50 µM) -0.167.

On to “GSTK1_Q9Y2Q3_176_ETTEAACR (UniProt Q9Y2Q3)”, for which the “probe-labelled cysteine peptide fold change” value is, setting by setting: (10 µM) -0.157; (50 µM) 0.101.

As for “GYS1_P13807_251_AAAHCAHVFTTVSQITAIEAQHLLK (UniProt P13807)”, the “probe-labelled cysteine peptide fold change” value amounted to 0.218 (10 µM) and 0.221 (50 µM).

In the case of “GTF3C1_Q12789_1008_NAVIVDTTICDPHYNLAR (UniProt Q12789)”, the “probe-labelled cysteine peptide fold change” value was -0.0797 (10 µM) and 0.126 (50 µM).

Turning to “HAT1_O14929_120_QIIPPGFCTNTNDFLSLLEK (UniProt O14929)”, the “probe-labelled cysteine peptide fold change” value is, setting by setting: (10 µM) 0.136; (50 µM) 0.303.

For “H2AFY_O75367_286_FVIHCNSPVWGADKCEELLEK (UniProt O75367)”, the “probe-labelled cysteine peptide fold change” value is, setting by setting: (10 µM) -0.209; (50 µM) -0.328.

Regarding “GSDMD_P57764_268_CLHNFLTDGVPAEGAFTEDFQGLR (UniProt P57764)”, the “probe-labelled cysteine peptide fold change” value by setting is: (10 µM) 0.567; (50 µM) -0.805.

Take “GTF3C2_Q8WUA4_828_MQEGEGHSQLCLDR (UniProt Q8WUA4)”: the “probe-labelled cysteine peptide fold change” value is, setting by setting: (10 µM) -0.094; (50 µM) -0.0629.

“HAT1_O14929_101_VDENFDCVEADDVEGK (UniProt O14929)”: the “probe-labelled cysteine peptide fold change” value reads like this: (10 µM) -0.209; (50 µM) -0.64.

Consider “GYS1_P13807_564+575_SLDDSCSQLTSFLYSFCQQSR (UniProt P13807)”, for which the “probe-labelled cysteine peptide fold change” value is, setting by setting: (10 µM) -0.166; (50 µM) -0.271.

Consider “GTF3C4_Q9UKN8_764_QAVCSNGHIWLR (UniProt Q9UKN8)”, for which the “probe-labelled cysteine peptide fold change” value by setting is: (10 µM) 0.0419; (50 µM) 0.185.

As for “H6PD_O95479_86_ALESLSCPK (UniProt O95479)”, the “probe-labelled cysteine peptide fold change” value by setting is: (10 µM) -0.122; (50 µM) -0.0298.

As for “GTF3A_Q92664_62_LDAHLCK (UniProt Q92664)”, the “probe-labelled cysteine peptide fold change” value runs as follows: (10 µM) -0.0616; (50 µM) -0.188.

For the target “GSDMD_P57764_191_FSLPGATCLQGEGQGHLSQK (UniProt P57764)”, the “probe-labelled cysteine peptide fold change” value reads like this: (10 µM) -0.11; (50 µM) -0.522.

For the target “GSTM3_P21266_119_LCYSSDHEK (UniProt P21266)”, the “probe-labelled cysteine peptide fold change” value is, setting by setting: (10 µM) -0.0202; (50 µM) -0.143.

As for “GTF2F2_P13984_116_AECRPAASENYMR (UniProt P13984)”, the “probe-labelled cysteine peptide fold change” value is -0.162 (10 µM) and -0.16 (50 µM).

On to “GTF2I_P78347_34_MVVTFLMSALESMCK (UniProt P78347)”, for which the “probe-labelled cysteine peptide fold change” value (10 µM) was -0.212 and the “probe-labelled cysteine peptide fold change” value (50 µM) was 0.0445.

Take “GTPBP6_O43824_99_VCLVHPDVK (UniProt O43824)”: the “probe-labelled cysteine peptide fold change” value is, setting by setting: (10 µM) -0.0638; (50 µM) -0.214.

As to “GSS_P48637_294_CPDIATQLAGTKK (UniProt P48637)”, the “probe-labelled cysteine peptide fold change” value is, setting by setting: (10 µM) -0.134; (50 µM) -0.204.

For “GSPT1_P15170_453_QDQVCIAR (UniProt P15170)”, the “probe-labelled cysteine peptide fold change” value is -0.0979 (10 µM) and 0.0274 (50 µM).

“HAUS3_Q68CZ6_123_CQLMASVTSHK (UniProt Q68CZ6)”: the “probe-labelled cysteine peptide fold change” value came out at 0.0577 (10 µM) and 0.0224 (50 µM).

As to “GSR_P00390_278_SFDSMISTNCTEELENAGVEVLK (UniProt P00390)”, the “probe-labelled cysteine peptide fold change” value was -0.123 (10 µM) and 0.0349 (50 µM).
